Reference: patent US7029871
No constants are given. Whether binding was seen depends on the method and setting. Some results given as binding are weak or reduced against the parent protein; the word gives no strength.

The chains behind the UniProt entries cited, without tags or fusion partners. Where a name states a change or a piece, a line headed by the entry shows the natural chain unless it says otherwise.
UniProt Q13546: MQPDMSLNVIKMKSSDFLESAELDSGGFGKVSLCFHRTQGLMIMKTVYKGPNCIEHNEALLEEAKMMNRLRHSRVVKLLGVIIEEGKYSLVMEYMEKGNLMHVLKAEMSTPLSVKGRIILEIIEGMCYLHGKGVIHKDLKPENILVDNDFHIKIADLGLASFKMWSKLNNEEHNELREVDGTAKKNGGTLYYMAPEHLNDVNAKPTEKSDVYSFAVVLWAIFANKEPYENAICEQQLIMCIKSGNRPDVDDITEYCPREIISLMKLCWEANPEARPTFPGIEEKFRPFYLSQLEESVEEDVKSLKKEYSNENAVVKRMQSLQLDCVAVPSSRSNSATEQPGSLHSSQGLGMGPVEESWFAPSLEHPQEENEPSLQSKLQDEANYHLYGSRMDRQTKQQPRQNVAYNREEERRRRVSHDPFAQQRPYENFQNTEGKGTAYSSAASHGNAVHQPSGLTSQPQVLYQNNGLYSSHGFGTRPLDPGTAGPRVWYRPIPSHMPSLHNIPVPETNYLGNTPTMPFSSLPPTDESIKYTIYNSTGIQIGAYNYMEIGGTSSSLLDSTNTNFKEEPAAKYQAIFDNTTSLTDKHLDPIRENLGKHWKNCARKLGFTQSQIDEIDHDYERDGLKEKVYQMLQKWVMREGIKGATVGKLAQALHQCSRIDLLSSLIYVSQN

Molecular target: T1, TNF-R associated death domain protein (TRADD) (UniProt Q15628)
T1 sequence (looked up): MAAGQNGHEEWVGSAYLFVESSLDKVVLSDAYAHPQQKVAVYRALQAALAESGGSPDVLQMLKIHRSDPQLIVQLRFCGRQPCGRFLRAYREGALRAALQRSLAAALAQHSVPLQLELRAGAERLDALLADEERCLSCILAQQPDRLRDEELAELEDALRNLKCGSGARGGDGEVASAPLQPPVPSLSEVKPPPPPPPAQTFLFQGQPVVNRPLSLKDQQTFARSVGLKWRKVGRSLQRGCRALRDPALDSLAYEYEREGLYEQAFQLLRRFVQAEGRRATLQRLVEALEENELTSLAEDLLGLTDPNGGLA
Assay: complex found in TNF-stimulated cells; method not described

With “human Receptor Interacting Protein (hRIP) (from UniProt Q13546 1-671) (enzyme)” the binding was “binds”.
